This data set in a line: Measurement of serum T3 concentration (LC-MS). Conditions: 3 weeks; for Serum T3: HFD mice, 1 μmol/kg day, mean ± SEM (n = 9–10); for serum T3, Calculated Amount (LC-MS): individual mouse serum sample, 1 umol/kg.

Values joined by “and” are separate entries in the source; they are usually repeats but may differ in a detail not shown here. Equal entries are not always repeated. “Also recorded” adds a separate entry of the source.

In the case of `O=C(O)Cc1cc(C(F)(F)F)c(Cc2ccc(O)c3ccccc23)c(C(F)(F)F)c1` [ZTA-261], the “Serum T3” value is “below the quantification limit; also recorded: B.L.Q”; the “serum T3, Calculated Amount (LC-MS)” value is -0.749 nM and -0.807 nM and 0.305 nM and -0.893 nM and -0.863 nM and -0.804 nM and -1.044 nM and -0.949 nM.
Regarding `N[C@@H](Cc1cc(I)c(Oc2ccc(O)c(I)c2)c(I)c1)C(=O)O` [T3, triiodothyronine], the “Serum T3” value is reported as 743.5 ± 78.0 ng/dL; the “serum T3, Calculated Amount (LC-MS)” value is 9.522 nM and 5.437 nM and 8.214 nM and 11.155 nM and 8.687 nM and 16.567 nM and 14.446 nM and 14.365 nM and 15.196 nM and 10.628 nM.
Consider `Cc1cc(OCC(=O)O)cc(C)c1Cc1ccc(O)c(C(C)C)c1` [GC-1], for which the “Serum T3” value is on record as “below the quantification limit; also recorded: B.L.Q”; the “serum T3, Calculated Amount (LC-MS)” value is -0.913 nM and -0.290 nM and -0.522 nM and 0.038 nM and -0.629 nM and -0.834 nM and 0.652 nM.
